The values below come from patent EP4847489A1, “IMIDAZOLIDINEDIONE HDAC INHIBITOR, AND PREPARATION METHOD THEREFOR AND USE THEREOF” (dated 2026).

Sequences of proteins named here, by UniProt entry; tags and fusion partners are left off.
UniProt Q13547, whole entry: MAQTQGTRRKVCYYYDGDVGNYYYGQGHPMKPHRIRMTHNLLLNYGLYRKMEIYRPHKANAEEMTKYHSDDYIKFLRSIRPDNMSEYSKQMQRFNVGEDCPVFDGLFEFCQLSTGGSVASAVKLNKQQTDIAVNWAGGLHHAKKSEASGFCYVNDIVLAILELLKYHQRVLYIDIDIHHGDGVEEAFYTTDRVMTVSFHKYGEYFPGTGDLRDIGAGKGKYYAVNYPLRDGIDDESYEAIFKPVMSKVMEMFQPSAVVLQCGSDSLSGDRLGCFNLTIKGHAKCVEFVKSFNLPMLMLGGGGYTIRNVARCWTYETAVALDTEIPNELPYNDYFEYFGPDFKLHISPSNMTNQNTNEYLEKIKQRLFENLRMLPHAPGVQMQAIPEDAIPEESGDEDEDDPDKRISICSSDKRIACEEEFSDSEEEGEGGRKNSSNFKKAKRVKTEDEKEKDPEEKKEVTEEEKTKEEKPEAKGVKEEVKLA

The target in the test is HDAC1 (Homo sapiens, UniProt Q13547). Nature of the test: HDAC inhibition assay (HDAC1 inhibitory activity). The following applies: read-out: HDAC1 inhibitory activity (IC50).

Molecules are shown by their SMILES. A number of entries come with more than one value. They are shown here; other results are not. An entry can have further records. The values listed for one entry read as repeated measurements on other runs, samples or individuals.

On to `COc1ccccc1/C=C1\NC(=O)N(CCCCCCCC(=O)NO)C1=O`, for which the half-inhibitory concentration (IC50) was 13 nM and 3.6 nM.

One may read the IC50 as the concentration that gives 50% inhibition.
